According to the supplement of paper PMC6078165:
Values are relative to the signal before dosing, not to a vehicle control; the signal also falls without drug.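 Labels refer to human fibroblasts, largely primary: uterine (C12385, HUF), lung (H6013), bone (Hs27A), adrenal (HADF), skin (WS1), plus mammary HMF and breast cancer-associated Hs343T. Cancer lines are basal-like or mesenchymal-like triple-negative breast cancer. The paper counts as hits responses shifting over 3x the replicate standard deviation. The tissue of the other fibroblasts is not given here.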

System: BT20
Experiment: relative JC-1 red fluorescence (viability) vs pre-drug, coculture with fibroblast (fraction); higher = more viable cancer cells
Description: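 JC-1 labelled TNBC cells cocultured 1:1 (1,500 cells each) with CellTrace Violet stained primary or stromal fibroblasts in 384-well plates in FluoroBrite medium, treated with one of 42 anticancer drugs at 0.1, 1, 10 or 100 uM. JC-1 red fluorescence (mitochondrial integrity in cancer cells only) was read by plate reader every 8 h for 72 h. Values are normalised to each well's pre-drug value. The stock of one drug was tenfold lower, so its dose labels may be too high.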

COc1cc([C@@H]2c3cc4c(cc3[C@@H](O[C@@H]3O[C@@H]5CO[C@@H](C)O[C@H]5[C@H](O)[C@H]3O)[C@H]3COC(=O)[C@H]23)OCO4)cc(OC)c1O [Etoposide]
relative JC-1 red fluorescence
Conditions	8 h	16 h	24 h	32 h	40 h	48 h	56 h	64 h	72 h
10 µM, coculture fibroblast: C12385	0.8762	0.8097	0.7768	0.692	0.635	0.612	0.592	0.57	0.556
10 µM, coculture fibroblast: H6013	0.917	0.908	0.933	0.88	0.84	0.828	0.852	0.853	0.852
10 µM, coculture fibroblast: H6019	0.857	0.775	0.735	0.638	0.561	0.518	0.466	0.441	0.426
10 µM, coculture fibroblast: H6076	0.852	0.89	0.791	0.741	0.691	0.658	0.645	0.642	0.626
10 µM, coculture fibroblast: H6231	0.819	0.903	0.7874	0.707	0.641	0.589	0.557	0.533	0.514
10 µM, coculture fibroblast: HADF	0.926	0.9	0.827	0.754	0.691	0.638	0.619	0.607	0.586
10 µM, coculture fibroblast: HCFa	0.918	0.8692	0.849	0.754	0.697	0.656	0.638	0.6194	0.59
10 µM, coculture fibroblast: HCPF	0.929	0.9003	0.828	0.774	0.741	0.696	0.66	0.654	0.62
10 µM, coculture fibroblast: HHSteC	0.927	0.893	0.887	0.813	0.736	0.702	0.683	0.655	0.635
10 µM, coculture fibroblast: HMF	0.851	0.898	0.781	0.685	0.638	0.579	0.56	0.545	0.517
10 µM, coculture fibroblast: HPFa	0.9147	0.875	0.8768	0.789	0.755	0.72	0.719	0.695	0.654
10 µM, coculture fibroblast: HUF	0.882	0.783	0.739	0.642	0.584	0.542	0.521	0.5	0.484
10 µM, coculture fibroblast: Hs5	0.938	0.91	0.829	0.773	0.724	0.679	0.666	0.656	0.658
10 µM, coculture fibroblast: Hs27A	0.845	0.886	0.917	0.854	0.84815	0.877	0.861	0.857	0.836
10 µM, coculture fibroblast: Hs343T	0.972	0.875	0.763	0.681	0.626	0.587	0.569	0.554	0.535
10 µM, coculture fibroblast: WS1	0.852	0.78165	0.7445	0.658	0.58808	0.5576	0.52	0.495	0.4811
100 µM, coculture fibroblast: C12385	0.896	0.8653	0.8238	0.7125	0.629	0.6042	0.5798	0.56	0.56
100 µM, coculture fibroblast: H6013	0.838	0.9495	0.93	0.852	0.8104	0.8087	0.82991	0.8215	0.803
100 µM, coculture fibroblast: H6019	0.8408	0.784	0.741	0.621	0.556	0.549	0.539	0.541	0.546
100 µM, coculture fibroblast: H6076	0.865	0.949	0.788	0.696	0.641	0.595	0.596	0.59	0.574
100 µM, coculture fibroblast: H6231	0.837	0.907	0.746	0.638	0.589	0.54	0.496	0.489	0.478
100 µM, coculture fibroblast: HADF	0.977	0.8934	0.818	0.732	0.697	0.651	0.653	0.646	0.622
100 µM, coculture fibroblast: HCFa	0.9462	0.878	0.811	0.721	0.669	0.664	0.669	0.667	0.652
100 µM, coculture fibroblast: HCPF	0.8182	0.9319	0.847	0.785	0.741	0.703	0.687	0.688	0.649
100 µM, coculture fibroblast: HHSteC	0.94	0.914	0.867	0.76	0.716	0.684	0.69	0.687	0.684
100 µM, coculture fibroblast: HMF	0.927	0.9143	0.7722	0.659	0.606	0.557	0.528	0.513	0.5
100 µM, coculture fibroblast: HPFa	0.941	0.9049	0.848	0.735	0.708	0.685	0.681	0.671	0.639
100 µM, coculture fibroblast: HUF	0.896	0.837	0.8	0.692	0.63	0.596	0.594	0.5844	0.5877
100 µM, coculture fibroblast: Hs5	0.891	0.927	0.8112	0.735	0.6778	0.634	0.608	0.58	0.561
100 µM, coculture fibroblast: Hs27A	0.764	0.883	0.9505	0.8594	0.819	0.816	0.813	0.8	0.7612
100 µM, coculture fibroblast: Hs343T	0.9868	0.893	0.723	0.62	0.569	0.519	0.494	0.48	0.475
100 µM, coculture fibroblast: WS1	0.864	0.8	0.739	0.631	0.557	0.531	0.507	0.491	0.487
